Where two headings read alike, the source gives them in different places. Results are given in words; binding and its absence hold for the method and conditions named. Binding seen in cells or lysates may run through a third protein. Some entries that bind do so weakly or less than the wild type. Tags and fused reporters may be left off the sequences shown.
Legend:
[1] = target: T1, GST-tagged truncated mouse CAMSAP3 (CC1+2: 600-729) (mouse) (UniProt Q80VC9); experiment: pull-down; GST fusion proteins as baits; GFP-tagged preys expressed in HEK293T cells, in lysates; immunoblot with anti-GFP antibodies; only the target purified
T1 sequence: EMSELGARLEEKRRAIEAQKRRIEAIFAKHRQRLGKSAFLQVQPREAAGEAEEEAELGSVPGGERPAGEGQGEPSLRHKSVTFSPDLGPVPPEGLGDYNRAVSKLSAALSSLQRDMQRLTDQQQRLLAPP

Chains of the proteins cited; added tags and fusions are not shown.
UniProt P59242: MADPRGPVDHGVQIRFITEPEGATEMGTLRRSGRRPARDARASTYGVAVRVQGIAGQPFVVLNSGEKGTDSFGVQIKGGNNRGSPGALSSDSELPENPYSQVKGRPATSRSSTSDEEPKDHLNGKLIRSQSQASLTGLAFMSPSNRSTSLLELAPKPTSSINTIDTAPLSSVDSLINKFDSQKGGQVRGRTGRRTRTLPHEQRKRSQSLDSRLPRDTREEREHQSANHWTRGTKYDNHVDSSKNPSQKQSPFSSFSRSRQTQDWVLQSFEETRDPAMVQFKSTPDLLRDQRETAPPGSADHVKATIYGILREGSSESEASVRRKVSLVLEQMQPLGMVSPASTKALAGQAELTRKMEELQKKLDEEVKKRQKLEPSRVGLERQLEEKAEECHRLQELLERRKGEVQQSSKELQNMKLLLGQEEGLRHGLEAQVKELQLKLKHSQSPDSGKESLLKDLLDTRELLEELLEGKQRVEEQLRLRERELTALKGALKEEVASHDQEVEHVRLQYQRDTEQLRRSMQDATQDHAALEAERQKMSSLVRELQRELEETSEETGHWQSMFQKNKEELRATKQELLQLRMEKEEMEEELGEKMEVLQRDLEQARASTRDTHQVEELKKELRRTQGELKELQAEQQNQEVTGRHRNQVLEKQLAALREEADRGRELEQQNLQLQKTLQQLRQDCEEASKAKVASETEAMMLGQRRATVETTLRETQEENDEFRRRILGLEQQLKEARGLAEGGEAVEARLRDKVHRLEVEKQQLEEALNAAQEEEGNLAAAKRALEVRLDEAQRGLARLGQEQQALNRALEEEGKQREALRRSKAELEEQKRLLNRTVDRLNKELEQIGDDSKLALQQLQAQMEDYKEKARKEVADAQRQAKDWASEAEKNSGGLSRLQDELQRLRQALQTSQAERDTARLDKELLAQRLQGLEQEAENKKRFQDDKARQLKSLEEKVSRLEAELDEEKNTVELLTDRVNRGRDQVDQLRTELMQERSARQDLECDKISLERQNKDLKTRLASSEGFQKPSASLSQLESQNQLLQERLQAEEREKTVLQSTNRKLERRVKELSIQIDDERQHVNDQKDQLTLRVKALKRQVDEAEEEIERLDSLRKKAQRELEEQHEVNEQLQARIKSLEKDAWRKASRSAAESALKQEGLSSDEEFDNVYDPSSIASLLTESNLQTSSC

[2] = target: T1, GST-tagged truncated mouse CAMSAP3 (CC1+2: 600-729) (mouse); experiment: as above; remark: listed apart in the source

For “GFP-tagged full-length mouse CGN (cingulin) (from UniProt P59242 1-1191)”, the binding [1] was “no binding”.

B1: GFP-tagged full-length mouse CGNL1 (protein, UniProt Q6AW69 1-1297)
chain: MELYFGEYQHVQQEYGVHLRLASGDTPKPRNSQPSKAGSYGVSIRVQGIDGHPYIVLNNTERCLAGTPFPENAPSFPSSVINNLSLHPSNGTVLKENTPEELQLPENPYLQTSPLRGQKQFSLHEGRNGVLERKDGPTKLPHVLNFQRHPELLQPYDPEKNEVNAKKHHPPESPWLRNATEDGTNCKKSRNCFPKSYGSQPNSPTSEDLAKTNMTAIRLCSSVVIEDPQKQTSVCVNVQRCAKEGVGEETLSPRRKSPTAPSPQAYSETKKNRPDVLPFRRQDSAGPILDGARSRRSSSSSTTPTSATSLYKFLLDDQECAIHADSVNRHENRRYIPFLPGTGRDIDTCSIPGVDQLIEKFDQKPGLQRRGRSGKRNRINPDDRKRSRSVDSAFPFGLQGNTEYLTEFSRNLGKSSEHLLRPSQVFPQRSVAQEHRGKHSPSSPPAKLQGAQGAHPKPPLQNKDGKVLNKGRQESTGACAPSLPAPNKKEEEIKIATATLMLQNRAVAATSDSGAKKISVKTFPSDSSTQATPDLLKGQQELTQQTNEETAKQILYNYLKEGGTDNEDATKRKVNLVFEKIQTLKSRAAGSAQGSNQAPNSPSEGNSLLDQKNKLILEVSELQQQLQLEMKNQQNIKEERERMREDLEELRVRHQSQVEETATLQRRLEESEGELRKSLEELFQVKMEREQHQTEIRDLQDQLSEMHDELDSTKRSEDREKGALIEELLQAKQDLQDLLIAKEEQEDLLRKRERELTALKGALKEEVSSHDQEMDKLKEQYDAELQALRESVEEATKNVEVLASRSNSSEQSQAEADLREKVLKEENEKLQGRIAELERRAAQLQRQMEDVKGDEAQAKETLRKCESEVQQLEEALVHARKEEKEATCARRALEKELEQARRELSQVSQEQKELLEKLRDEAEQKEQLRKLKNEMESERWHLDKTIEKLQKEMADIAEASRTSSLELQKQLGEYKEKNRRELAEMQTQLKEKCLEVEKARLAASKMQDELRLKEEELQDYQRAEEEALTKRQLLEQSLKDLEYELEAKSHLKDDRSRLIKQMEDKVSQLEIELEEERTNADLLSERITWSREQMEQMRSELLQEKAAKQDLECDKISLERQNKDLKSRIIHLEGSYRSSKEGLVVQMEARIAELEDRLENEERDRANLQLSNRRLERKVKELVMQVDDEHLSLTDQKDQLSLRLKAMKRQVEEAEEEIDRLESSKKKLQRELEEQMGVNEQLQGQLNSLKKGLRLKTLSSKVLDDSDDDDLSSDAGSLYEAPLSYAFPKDSTIASQI
In the case of B1, the binding [2] is reported as “binds”.
